This data set is described as follows: Baseline fluorescence ratio Ro of probe in absence of analyte. The conditions noted are these: for AvgOfRo: average baseline fluorescence ratio Ro of the clone probe, substitutions with respect to SEQ ID NO: 2; for Ro: baseline fluorescence ratio of probe, no fatty acid.

Results on 22 molecules are retold here after patent publication US20060257938A1, “Method of screening for drugs that block ligand binding to a lipid binding protein” (priority 2005, published 2006).

B1: 60F, 72A (protein, listed as Rattus norvegicus)
chain: AFDGTWKVDRNENYEKFMEKMGINVVKRKLGAHDNLKLTITQEGNKFTVKESSNFRNIDFVFELGVDFAYSAADGTELTGTWTMEGNKLVGKFKRVDNGKELIAVREISGNELIQTYTYEGVEAKRIFKKE
modifications: PEPTIDE (1)...(131) wild-type rat intestinal fatty acid binding protein
On to B1, for which the AvgOfRo amounted to 0.25 and the Ro turned out to be 0.247.

B2: 62E, 72A (protein, listed as Rattus norvegicus)
chain: AFDGTWKVDRNENYEKFMEKMGINVVKRKLGAHDNLKLTITQEGNKFTVKESSNFRNIDVVEELGVDFAYSAADGTELTGTWTMEGNKLVGKFKRVDNGKELIAVREISGNELIQTYTYEGVEAKRIFKKE
modifications: PEPTIDE (1)...(131) wild-type rat intestinal fatty acid binding protein
On to B2, for which the AvgOfRo amounted to 0.21.

B3: 62C, 72A (protein, listed as Rattus norvegicus)
chain: AFDGTWKVDRNENYEKFMEKMGINVVKRKLGAHDNLKLTITQEGNKFTVKESSNFRNIDVVCELGVDFAYSAADGTELTGTWTMEGNKLVGKFKRVDNGKELIAVREISGNELIQTYTYEGVEAKRIFKKE
modifications: PEPTIDE (1)...(131) wild-type rat intestinal fatty acid binding protein
B3: the AvgOfRo is recorded as 0.19.

B4: 60R, 72A (protein, listed as Rattus norvegicus)
chain: AFDGTWKVDRNENYEKFMEKMGINVVKRKLGAHDNLKLTITQEGNKFTVKESSNFRNIDRVFELGVDFAYSAADGTELTGTWTMEGNKLVGKFKRVDNGKELIAVREISGNELIQTYTYEGVEAKRIFKKE
modifications: PEPTIDE (1)...(131) wild-type rat intestinal fatty acid binding protein
Take B4: the AvgOfRo came to 0.27.

B5: 60I, 72A (protein, listed as Rattus norvegicus)
chain: AFDGTWKVDRNENYEKFMEKMGINVVKRKLGAHDNLKLTITQEGNKFTVKESSNFRNIDIVFELGVDFAYSAADGTELTGTWTMEGNKLVGKFKRVDNGKELIAVREISGNELIQTYTYEGVEAKRIFKKE
modifications: PEPTIDE (1)...(131) wild-type rat intestinal fatty acid binding protein
Take B5: the AvgOfRo was found to be 0.20 and the Ro is given as 0.202.

B6: 62N, 72A (protein, listed as Rattus norvegicus)
chain: AFDGTWKVDRNENYEKFMEKMGINVVKRKLGAHDNLKLTITQEGNKFTVKESSNFRNIDVVNELGVDFAYSAADGTELTGTWTMEGNKLVGKFKRVDNGKELIAVREISGNELIQTYTYEGVEAKRIFKKE
modifications: PEPTIDE (1)...(131) wild-type rat intestinal fatty acid binding protein
For B6, the AvgOfRo was found to be 0.20.

B7: 60Q, 72A (protein, listed as Rattus norvegicus)
chain: AFDGTWKVDRNENYEKFMEKMGINVVKRKLGAHDNLKLTITQEGNKFTVKESSNFRNIDQVFELGVDFAYSAADGTELTGTWTMEGNKLVGKFKRVDNGKELIAVREISGNELIQTYTYEGVEAKRIFKKE
modifications: PEPTIDE (1)...(131) wild-type rat intestinal fatty acid binding protein
Regarding B7, the AvgOfRo was found to be 0.27.

B8: 60L, 72A (protein, listed as Rattus norvegicus)
chain: AFDGTWKVDRNENYEKFMEKMGINVVKRKLGAHDNLKLTITQEGNKFTVKESSNFRNIDLVFELGVDFAYSAADGTELTGTWTMEGNKLVGKFKRVDNGKELIAVREISGNELIQTYTYEGVEAKRIFKKE
modifications: PEPTIDE (1)...(131) wild-type rat intestinal fatty acid binding protein
As for B8, the AvgOfRo is 0.24 and the Ro is 0.236.

B9: 62G, 72A (protein, listed as Rattus norvegicus)
chain: AFDGTWKVDRNENYEKFMEKMGINVVKRKLGAHDNLKLTITQEGNKFTVKESSNFRNIDVVGELGVDFAYSAADGTELTGTWTMEGNKLVGKFKRVDNGKELIAVREISGNELIQTYTYEGVEAKRIFKKE
modifications: PEPTIDE (1)...(131) wild-type rat intestinal fatty acid binding protein
Consider B9, for which the AvgOfRo was determined as 0.22.

B10: 60H, 72A (protein, listed as Rattus norvegicus)
chain: AFDGTWKVDRNENYEKFMEKMGINVVKRKLGAHDNLKLTITQEGNKFTVKESSNFRNIDHVFELGVDFAYSAADGTELTGTWTMEGNKLVGKFKRVDNGKELIAVREISGNELIQTYTYEGVEAKRIFKKE
modifications: PEPTIDE (1)...(131) wild-type rat intestinal fatty acid binding protein
Take B10: the AvgOfRo worked out at 0.29.

B11: 62A, 72A (protein, listed as Rattus norvegicus)
chain: AFDGTWKVDRNENYEKFMEKMGINVVKRKLGAHDNLKLTITQEGNKFTVKESSNFRNIDVVAELGVDFAYSAADGTELTGTWTMEGNKLVGKFKRVDNGKELIAVREISGNELIQTYTYEGVEAKRIFKKE
modifications: PEPTIDE (1)...(131) wild-type rat intestinal fatty acid binding protein
For the molecule B11, the AvgOfRo amounted to 0.27.

B12: 60P, 72A (protein, listed as Rattus norvegicus)
chain: AFDGTWKVDRNENYEKFMEKMGINVVKRKLGAHDNLKLTITQEGNKFTVKESSNFRNIDPVFELGVDFAYSAADGTELTGTWTMEGNKLVGKFKRVDNGKELIAVREISGNELIQTYTYEGVEAKRIFKKE
modifications: PEPTIDE (1)...(131) wild-type rat intestinal fatty acid binding protein
On to B12, for which the AvgOfRo came to 0.40.

B13: 60S, 72A (protein, listed as Rattus norvegicus)
chain: AFDGTWKVDRNENYEKFMEKMGINVVKRKLGAHDNLKLTITQEGNKFTVKESSNFRNIDSVFELGVDFAYSAADGTELTGTWTMEGNKLVGKFKRVDNGKELIAVREISGNELIQTYTYEGVEAKRIFKKE
modifications: PEPTIDE (1)...(131) wild-type rat intestinal fatty acid binding protein
As to B13, the AvgOfRo amounted to 0.26.

B14: 60M, 72A (protein, listed as Rattus norvegicus)
chain: AFDGTWKVDRNENYEKFMEKMGINVVKRKLGAHDNLKLTITQEGNKFTVKESSNFRNIDMVFELGVDFAYSAADGTELTGTWTMEGNKLVGKFKRVDNGKELIAVREISGNELIQTYTYEGVEAKRIFKKE
modifications: PEPTIDE (1)...(131) wild-type rat intestinal fatty acid binding protein
Turning to B14, the AvgOfRo was 0.29.

B15: 60N, 72A (protein, listed as Rattus norvegicus)
chain: AFDGTWKVDRNENYEKFMEKMGINVVKRKLGAHDNLKLTITQEGNKFTVKESSNFRNIDNVFELGVDFAYSAADGTELTGTWTMEGNKLVGKFKRVDNGKELIAVREISGNELIQTYTYEGVEAKRIFKKE
modifications: PEPTIDE (1)...(131) wild-type rat intestinal fatty acid binding protein
As to B15, the AvgOfRo is on record as 0.21.

B16: 62H, 72A (protein, listed as Rattus norvegicus)
chain: AFDGTWKVDRNENYEKFMEKMGINVVKRKLGAHDNLKLTITQEGNKFTVKESSNFRNIDVVHELGVDFAYSAADGTELTGTWTMEGNKLVGKFKRVDNGKELIAVREISGNELIQTYTYEGVEAKRIFKKE
modifications: PEPTIDE (1)...(131) wild-type rat intestinal fatty acid binding protein
Take B16: the AvgOfRo came out at 0.20.

B17: 60T, 72A (protein, listed as Rattus norvegicus)
chain: AFDGTWKVDRNENYEKFMEKMGINVVKRKLGAHDNLKLTITQEGNKFTVKESSNFRNIDTVFELGVDFAYSAADGTELTGTWTMEGNKLVGKFKRVDNGKELIAVREISGNELIQTYTYEGVEAKRIFKKE
modifications: PEPTIDE (1)...(131) wild-type rat intestinal fatty acid binding protein
Regarding B17, the AvgOfRo is 0.22.

B18: 60W, 72A (protein, listed as Rattus norvegicus)
chain: AFDGTWKVDRNENYEKFMEKMGINVVKRKLGAHDNLKLTITQEGNKFTVKESSNFRNIDWVFELGVDFAYSAADGTELTGTWTMEGNKLVGKFKRVDNGKELIAVREISGNELIQTYTYEGVEAKRIFKKE
modifications: PEPTIDE (1)...(131) wild-type rat intestinal fatty acid binding protein
Consider B18, for which the AvgOfRo was found to be 0.18 and the Ro stood at 0.185.

B19: 60K, 72A (protein, listed as Rattus norvegicus)
chain: AFDGTWKVDRNENYEKFMEKMGINVVKRKLGAHDNLKLTITQEGNKFTVKESSNFRNIDKVFELGVDFAYSAADGTELTGTWTMEGNKLVGKFKRVDNGKELIAVREISGNELIQTYTYEGVEAKRIFKKE
modifications: PEPTIDE (1)...(131) wild-type rat intestinal fatty acid binding protein
For B19, the AvgOfRo was found to be 0.41 and the Ro was 0.465.

B20: 62I, 72A (protein, listed as Rattus norvegicus)
chain: AFDGTWKVDRNENYEKFMEKMGINVVKRKLGAHDNLKLTITQEGNKFTVKESSNFRNIDVVIELGVDFAYSAADGTELTGTWTMEGNKLVGKFKRVDNGKELIAVREISGNELIQTYTYEGVEAKRIFKKE
modifications: PEPTIDE (1)...(131) wild-type rat intestinal fatty acid binding protein
B20: the AvgOfRo worked out at 0.19.

B21: 62D, 72A (protein, listed as Rattus norvegicus)
chain: AFDGTWKVDRNENYEKFMEKMGINVVKRKLGAHDNLKLTITQEGNKFTVKESSNFRNIDVVDELGVDFAYSAADGTELTGTWTMEGNKLVGKFKRVDNGKELIAVREISGNELIQTYTYEGVEAKRIFKKE
modifications: PEPTIDE (1)...(131) wild-type rat intestinal fatty acid binding protein
B21: the AvgOfRo turned out to be 0.23 and the Ro is listed as 0.230.

B22: 60G, 72A (protein, listed as Rattus norvegicus)
chain: AFDGTWKVDRNENYEKFMEKMGINVVKRKLGAHDNLKLTITQEGNKFTVKESSNFRNIDGVFELGVDFAYSAADGTELTGTWTMEGNKLVGKFKRVDNGKELIAVREISGNELIQTYTYEGVEAKRIFKKE
modifications: PEPTIDE (1)...(131) wild-type rat intestinal fatty acid binding protein
For the molecule B22, the AvgOfRo is 0.23.
